Some of the results follow.
Molecular target: OsWRKY34 (Oryza sativa, UniProt Q0JBA9 1-250)
Assay: protein-binding microarray (RPBM); PBS, 2% BSA, 51.3 ng/ul salmon testes DNA, 50 uM zinc acetate, 200 nM TF, 25 C, 1 h; high values mean tight binding
Conditions: protein: recombinant; tags: N-terminal polyhistidine and DsRed monomer fusion (pET32a); label: CyDye5-dUTP incorporated in the synthesized complementary strand; 3' TTTTT single-stranded linker to array surface; dsDNA, one strand shown
Summary of the method: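 Binding signal is reported as fluorescence intensity per feature (arbitrary units) from an Axon 4000B scanner. Incubation used 200 nM of each Ni–NTA-purified, N-terminally polyhistidine- and DsRed-fused transcription factor from E. coli BL21-CodonPlus on a double-stranded custom Agilent array for 1 h at 25 °C, with 50 µM zinc acetate in the buffer, followed by washing.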

Amino acid sequences for entries named in this document (tags omitted).
UniProt Q0JBA9, entry or part of it: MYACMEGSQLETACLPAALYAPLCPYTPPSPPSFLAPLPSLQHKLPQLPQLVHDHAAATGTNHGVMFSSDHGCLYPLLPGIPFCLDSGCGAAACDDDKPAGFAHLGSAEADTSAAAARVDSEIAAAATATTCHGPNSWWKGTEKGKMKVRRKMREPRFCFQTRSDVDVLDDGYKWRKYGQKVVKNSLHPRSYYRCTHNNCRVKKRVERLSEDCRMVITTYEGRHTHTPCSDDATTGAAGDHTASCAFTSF

Sequence | binding signal
GTGTTCTTATTACATAATTAGCTGCTGCCATTTTTTTTTACGGAGTCACCTAGTGCAG | 8980 fluorescence intensity (a.u.)
ATTGTTTCTCCTTTACGCGTTTTAAGCTTTCCATCTTGAACGGAGTCACCTAGTGCAG | 9480 fluorescence intensity (a.u.)
CTTAGTTCCGCCGGCAGTGATGCACTCGGTTTGACCGGAGCGGAGTCACCTAGTGCAG | 8260 fluorescence intensity (a.u.)
GATATATATGGTCCTCTCACCAGCTGCCACATGCAAGCAACGGAGTCACCTAGTGCAG | 8030 fluorescence intensity (a.u.)
CTTGATTGCTGATTAGTCAGCTGCCTGCGCTGCGTTCTCCCGGAGTCACCTAGTGCAG | 8710 fluorescence intensity (a.u.)
GGCTCTCGAAACTTCCGGGCTCCGGCGACTCCGCCGGCCGCGGAGTCACCTAGTGCAG | 9030 fluorescence intensity (a.u.)
CATTCACTTTTCCATTTCTGATGCCATGGGTCTTATTCCACGGAGTCACCTAGTGCAG | 10900 fluorescence intensity (a.u.)
TTGTTGTCTTGGAGTTGGTCTTAGTTTTGTGGAACCCTACCGGAGTCACCTAGTGCAG | 10800 fluorescence intensity (a.u.)
GGAGATGCGCTATACCAGGTTGTGTGGTTGAGGGAGGTGACGGAGTCACCTAGTGCAG | 10200 fluorescence intensity (a.u.)
GGAGAGGATCAATCTTTACCACCTTCTTTGTTGTTTGATTCGGAGTCACCTAGTGCAG | 11000 fluorescence intensity (a.u.)
ACCAGTAGCTAAGCCATCCATCCATCCATCGGCCGCGCACCGGAGTCACCTAGTGCAG | 8780 fluorescence intensity (a.u.)
CGTGTGTGCCTGTGCCTCGAGGTTATTTCCCCGTCCGCTACGGAGTCACCTAGTGCAG | 10700 fluorescence intensity (a.u.)
GTGTTCTTGCCCTTGCTTTGTAATCCAATTGTGATTTTGCCGGAGTCACCTAGTGCAG | 8220 fluorescence intensity (a.u.)
TGTTTGACTTTTTTCTTGGTTAAAATTCTTTAAATTTGATCGGAGTCACCTAGTGCAG | 18900 fluorescence intensity (a.u.)
TTTAGACTTCTTCCAACTGGAATGCGTTTGACCCTAACCACGGAGTCACCTAGTGCAG | 8180 fluorescence intensity (a.u.)
ACCATTCCTACCACATCACACTTGATCTGCATTCTTCATCCGGAGTCACCTAGTGCAG | 14000 fluorescence intensity (a.u.)
CCTTCCGTTTCCGTTCCGTTCCATTTCCCGTTCACACCCTCGGAGTCACCTAGTGCAG | 9680 fluorescence intensity (a.u.)
CCTCTTTTGAACATTTTCCTAACTTCTACTCTTATTTTTCCGGAGTCACCTAGTGCAG | 10800 fluorescence intensity (a.u.)
ATCTTTGCCTCGTTCGTCCTCCGGTTTTCTCCGCAGTTTCCGGAGTCACCTAGTGCAG | 12500 fluorescence intensity (a.u.)
GTGGACTGTATTGATGATTTCCCATTATTTTTTATACCTTCGGAGTCACCTAGTGCAG | 12600 fluorescence intensity (a.u.)
TTGTACCTTGATCCATTGGTTGGGCCAACATTTTTTACGACGGAGTCACCTAGTGCAG | 12100 fluorescence intensity (a.u.)
ATTGCAGCCTTCGCCTCCTTTCCTTCAGGTACACATATTGCGGAGTCACCTAGTGCAG | 9850 fluorescence intensity (a.u.)
CTCTCCCGCAGCCGCCCGCAAGATCGATCTGTCACTCATGCGGAGTCACCTAGTGCAG | 8110 fluorescence intensity (a.u.)
AATCCTAGCATCTACCAAGTTCCTCGGACTCTTCGTCGTTCGGAGTCACCTAGTGCAG | 11800 fluorescence intensity (a.u.)
GGACTCCCGTACACCGCCCAAACCTACTCAATGATATTCTCGGAGTCACCTAGTGCAG | 8150 fluorescence intensity (a.u.)
TCGCCGCGCGCGCCCACTCCTCCGCGTCGCGTCACCCATGCGGAGTCACCTAGTGCAG | 8620 fluorescence intensity (a.u.)
CCCCGCATAAACACTCTCACTGACGTGTGGGCCCCGCAGACGGAGTCACCTAGTGCAG | 9860 fluorescence intensity (a.u.)

4 records picked at random from the list so far, as already listed:
Sequence | binding signal
CGTGTGTGCCTGTGCCTCGAGGTTATTTCCCCGTCCGCTACGGAGTCACCTAGTGCAG | 10700 fluorescence intensity (a.u.)
ATCTTTGCCTCGTTCGTCCTCCGGTTTTCTCCGCAGTTTCCGGAGTCACCTAGTGCAG | 12500 fluorescence intensity (a.u.)
CCTCTTTTGAACATTTTCCTAACTTCTACTCTTATTTTTCCGGAGTCACCTAGTGCAG | 10800 fluorescence intensity (a.u.)
CCCCGCATAAACACTCTCACTGACGTGTGGGCCCCGCAGACGGAGTCACCTAGTGCAG | 9860 fluorescence intensity (a.u.)

Next part.

Sequence | binding signal
CTTTATATATATATGCACGCCCACCATCACCATCTAAACGCGGAGTCACCTAGTGCAG | 8050 fluorescence intensity (a.u.)
CACCACTTCACCTGGATCCGCTCCGACCGCTGCGCTTCGTCGGAGTCACCTAGTGCAG | 8690 fluorescence intensity (a.u.)
GTCTATCGTCCTGATGTTGCCCGTGTTGGAGTTGATTCACCGGAGTCACCTAGTGCAG | 8080 fluorescence intensity (a.u.)
GTTGCTGCCGACGGAGCTCCTCGGCTTCTCAGTTCCACTTCGGAGTCACCTAGTGCAG | 8110 fluorescence intensity (a.u.)
TGCTTTTTGGTATCTGCACATCCAATATTTGGGTTTTTTTCGGAGTCACCTAGTGCAG | 8630 fluorescence intensity (a.u.)
AGTACTATACTTCTTTTACCTGTTTCATTGAAATAATTGCCGGAGTCACCTAGTGCAG | 10500 fluorescence intensity (a.u.)
TTCCTGGGAGGGGTTTATGTGAGAAAGGCCATCGTATTCTCGGAGTCACCTAGTGCAG | 9780 fluorescence intensity (a.u.)
ACTTCATGAACTTACGCTACGTTTCACCAAGTTTCATTTACGGAGTCACCTAGTGCAG | 8840 fluorescence intensity (a.u.)
ATTCGCCTCCGCCGCCCTTCTGGCCACGTCATCTTATTAACGGAGTCACCTAGTGCAG | 8540 fluorescence intensity (a.u.)
CTAAAATCATATATTGTATACTCCTTCCGTTTTATATTATCGGAGTCACCTAGTGCAG | 10100 fluorescence intensity (a.u.)
ATGCAAATATTCTTCTCTCTTGAACTCTTGGTCTTGGTGACGGAGTCACCTAGTGCAG | 8190 fluorescence intensity (a.u.)
TGCCTAGCTTCTTCTCATCTCGGCGCGGCGGCTGCGTCCGCGGAGTCACCTAGTGCAG | 8180 fluorescence intensity (a.u.)
TGTGCCTCCGGATTTGACCTTTCCTCGAACCTTCTTCTTCCGGAGTCACCTAGTGCAG | 13300 fluorescence intensity (a.u.)
GGACATATAGCCCTATATATGCACAACATTCATACCAATTCGGAGTCACCTAGTGCAG | 8500 fluorescence intensity (a.u.)
GGAGAGGAGTGAGGAGGGATTGTGAGGTGGGGTCGGGGTGCGGAGTCACCTAGTGCAG | 9030 fluorescence intensity (a.u.)
GGCCACACACTGATCTATTAATGCCTATCATATGCGCATCCGGAGTCACCTAGTGCAG | 11800 fluorescence intensity (a.u.)
TTTCAAACCATTGGCAGGCTTCCACGCATGCATGTCTCTCCGGAGTCACCTAGTGCAG | 9180 fluorescence intensity (a.u.)
TCGTAATCTAATATATATTTCCTGGTCCTATTACATAACCCGGAGTCACCTAGTGCAG | 11600 fluorescence intensity (a.u.)
ACCCTTTTTTTTCTCCAAATTTTCTCCGTCTCATTCCCTACGGAGTCACCTAGTGCAG | 9560 fluorescence intensity (a.u.)
CAGAGGATCCGCGTCCGCTCATCTGTCATCTCGTTCTTCTCGGAGTCACCTAGTGCAG | 9900 fluorescence intensity (a.u.)
TTGTTTTCTACTCCTAATACTCTTTTGTCTGTCTCATCTGCGGAGTCACCTAGTGCAG | 12400 fluorescence intensity (a.u.)
CGGAGAAGTCCGGGCAGGCAAGGGGATGGGGATGGGGATGCGGAGTCACCTAGTGCAG | 12400 fluorescence intensity (a.u.)
GAAATACGCACATGGGGTGGGCGTGCTTCTACCATGCCTCCGGAGTCACCTAGTGCAG | 8290 fluorescence intensity (a.u.)
TAAGCATTCAGCCTCTTACAACCCTTTATCATACTTGCTCCGGAGTCACCTAGTGCAG | 8700 fluorescence intensity (a.u.)
TATCCGATCCATGGCGTTCTCTTGAGTCCAGAGAGTATTTCGGAGTCACCTAGTGCAG | 8460 fluorescence intensity (a.u.)
GATGTACATTCCTCTTTTAATGCCTACACTATCGCAGCAACGGAGTCACCTAGTGCAG | 8260 fluorescence intensity (a.u.)
TTTGCACCACGTACGCACACTTGTTCACGGGCCATAAATCCGGAGTCACCTAGTGCAG | 8240 fluorescence intensity (a.u.)
